Measured values taken from publication PMC4858978.
These are yes or no findings as the source states them, for the method shown. Binding seen in cells or lysates may run through a third protein. Some results given as binding are weak or reduced against the parent protein; the word gives no strength.

Protein sequences, listed by entry. Tags and fused reporters are not part of them. Lines headed by an entry give the natural chain unless they say otherwise; changes in a name come on top. Chains listed by the source or under a name are the forms on record and can include a tag or linker.
UniProt P14618: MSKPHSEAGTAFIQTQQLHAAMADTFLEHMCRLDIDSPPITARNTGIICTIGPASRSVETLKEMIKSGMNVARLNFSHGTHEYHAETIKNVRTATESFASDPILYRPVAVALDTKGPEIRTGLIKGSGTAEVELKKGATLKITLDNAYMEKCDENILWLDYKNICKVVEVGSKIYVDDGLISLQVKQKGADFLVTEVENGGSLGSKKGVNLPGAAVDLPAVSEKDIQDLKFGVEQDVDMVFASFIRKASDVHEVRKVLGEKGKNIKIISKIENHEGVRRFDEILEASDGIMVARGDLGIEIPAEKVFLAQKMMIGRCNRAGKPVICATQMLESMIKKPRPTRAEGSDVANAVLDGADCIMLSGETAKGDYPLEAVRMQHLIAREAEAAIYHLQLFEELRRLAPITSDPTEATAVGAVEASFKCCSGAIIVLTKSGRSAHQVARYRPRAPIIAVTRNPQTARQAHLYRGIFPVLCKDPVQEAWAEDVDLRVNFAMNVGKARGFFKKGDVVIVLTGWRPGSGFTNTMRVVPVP
FLAG-tagged PKM1 (P14618, form named): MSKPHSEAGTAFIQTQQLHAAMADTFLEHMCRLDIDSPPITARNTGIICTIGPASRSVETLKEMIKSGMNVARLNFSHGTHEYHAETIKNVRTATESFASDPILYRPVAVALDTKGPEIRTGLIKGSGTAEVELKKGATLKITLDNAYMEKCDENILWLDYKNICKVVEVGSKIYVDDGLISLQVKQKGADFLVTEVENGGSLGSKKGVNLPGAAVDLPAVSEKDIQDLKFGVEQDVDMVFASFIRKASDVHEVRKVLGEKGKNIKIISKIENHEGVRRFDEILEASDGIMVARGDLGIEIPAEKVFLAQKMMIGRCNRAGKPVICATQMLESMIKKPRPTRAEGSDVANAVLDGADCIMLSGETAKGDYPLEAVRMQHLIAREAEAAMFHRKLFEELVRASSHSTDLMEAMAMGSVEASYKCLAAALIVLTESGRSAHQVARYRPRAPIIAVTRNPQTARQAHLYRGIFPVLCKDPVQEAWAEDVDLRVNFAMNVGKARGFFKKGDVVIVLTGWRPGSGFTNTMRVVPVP
UniProt O60260: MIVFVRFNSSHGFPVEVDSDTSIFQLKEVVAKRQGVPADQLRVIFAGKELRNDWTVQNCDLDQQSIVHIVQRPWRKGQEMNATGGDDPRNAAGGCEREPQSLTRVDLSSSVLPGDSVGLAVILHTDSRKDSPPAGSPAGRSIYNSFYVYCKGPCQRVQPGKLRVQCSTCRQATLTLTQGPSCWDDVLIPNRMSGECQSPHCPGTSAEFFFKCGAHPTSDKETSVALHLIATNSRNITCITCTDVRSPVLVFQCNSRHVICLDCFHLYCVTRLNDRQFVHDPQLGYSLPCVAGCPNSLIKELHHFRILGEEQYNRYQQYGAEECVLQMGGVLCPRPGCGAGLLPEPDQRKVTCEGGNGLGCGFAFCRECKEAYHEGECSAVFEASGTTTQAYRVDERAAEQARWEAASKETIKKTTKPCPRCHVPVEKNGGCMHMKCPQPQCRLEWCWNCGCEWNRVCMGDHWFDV

How the values were obtained:
[1] = molecular target: FLAG-tagged PKM1 (UniProt P14618); assay: co-IP; cytoplasmic extracts of transiently transfected cells; FLAG M2-agarose or HA-agarose beads at 4 °C overnight, washed with BC100 buffer, eluted with FLAG or HA peptide; Western blot
[2] = molecular target: GST-tagged full-length parkin (human) (UniProt O60260); assay: pull-down; purified GST or GST-tagged protein incubated with in vitro translated 35S-labeled protein at 4 °C overnight in BC100 buffer + 0.2% BSA, GST resin, eluted with 20 mM reduced glutathione; autoradiography; only the target purified
[3] = molecular target: full-length GST-PKM2 fusion protein (human) (UniProt P14618); assay: as above
[4] = molecular target: FLAG-tagged PKM2 (human) (UniProt P14618); assay: co-IP; cytoplasmic extracts of transiently transfected cells; FLAG M2-agarose or HA-agarose beads at 4 °C overnight, washed with BC100 buffer, eluted with FLAG or HA peptide; Western blot
[5] = molecular target: pyruvate kinase M2, endogenous (human (endogenous in H1299, U87, IMR32)) (UniProt P14618); assay: co-IP; endogenous proteins; cytoplasmic extracts of U87 or IMR32 cells; PKM2-specific or parkin-specific antibody or control IgG at 4 °C overnight, Protein A/G beads, BC100 washes; Western blot
[6] = molecular target: FLAG-HA-parkin (FLAG- and HA-double tagged human parkin) (human) (UniProt O60260); assay: co-IP; FLAG-HA-parkin/H1299 stable line, glucose starvation for 0, 1 and 2 h; cytoplasmic extracts, FLAG M2-agarose beads; Western blot
[7] = molecular target: FLAG-tagged parkin (human) (UniProt O60260); assay: co-IP; cytoplasmic extracts of transiently transfected cells; FLAG M2-agarose or HA-agarose beads at 4 °C overnight, washed with BC100 buffer, eluted with FLAG or HA peptide; Western blot
[8] = molecular target: parkin, endogenous (human (endogenous in H1299, U87, IMR32)) (UniProt O60260); assay: co-IP; endogenous proteins; cytoplasmic extracts of U87 or IMR32 cells; PKM2-specific or parkin-specific antibody or control IgG at 4 °C overnight, Protein A/G beads, BC100 washes; Western blot

Substance: HA-tagged parkin (from UniProt O60260 1-465) (enzyme)
- binding [1]: binds

Substance: in vitro translated [35S]methionine-labeled PKM2 (from UniProt P14618 1-531) (enzyme)
- binding [2]: binds

Substance: in vitro translated [35S]methionine-labeled full-length parkin (from UniProt O60260 1-465) (enzyme)
- binding [3]: binds

Substance: in vitro translated [35S]methionine-labeled parkin 100-465 fragment (from UniProt O60260 100-465) (domain or fragment)
- binding [3]: binds

Substance: myc-tagged parkin (from UniProt O60260 1-465) (enzyme)
- binding [4]: binds

Substance: parkin, endogenous (from UniProt O60260 1-465) (enzyme)
- binding [5]: binds

Substance: pyruvate kinase M2, endogenous (from UniProt P14618 1-531) (enzyme)
- binding [6]: binds
- binding [7]: binds
- binding [8]: binds
